Measurements: paper PMC6092394
No constants are given. Whether binding was seen depends on the method and setting. Binding seen in cells or lysates may run through a third protein. Some entries that bind do so weakly or less than the wild type.

Protein sequences, listed by entry. Tags and fused reporters are not part of them. Lines headed by an entry give the natural chain unless they say otherwise; changes in a name come on top. Chains listed by the source or under a name are the forms on record and can include a tag or linker.
TRPC4β, CFP- or YFP-tagged (Q9QUQ5-2, form named): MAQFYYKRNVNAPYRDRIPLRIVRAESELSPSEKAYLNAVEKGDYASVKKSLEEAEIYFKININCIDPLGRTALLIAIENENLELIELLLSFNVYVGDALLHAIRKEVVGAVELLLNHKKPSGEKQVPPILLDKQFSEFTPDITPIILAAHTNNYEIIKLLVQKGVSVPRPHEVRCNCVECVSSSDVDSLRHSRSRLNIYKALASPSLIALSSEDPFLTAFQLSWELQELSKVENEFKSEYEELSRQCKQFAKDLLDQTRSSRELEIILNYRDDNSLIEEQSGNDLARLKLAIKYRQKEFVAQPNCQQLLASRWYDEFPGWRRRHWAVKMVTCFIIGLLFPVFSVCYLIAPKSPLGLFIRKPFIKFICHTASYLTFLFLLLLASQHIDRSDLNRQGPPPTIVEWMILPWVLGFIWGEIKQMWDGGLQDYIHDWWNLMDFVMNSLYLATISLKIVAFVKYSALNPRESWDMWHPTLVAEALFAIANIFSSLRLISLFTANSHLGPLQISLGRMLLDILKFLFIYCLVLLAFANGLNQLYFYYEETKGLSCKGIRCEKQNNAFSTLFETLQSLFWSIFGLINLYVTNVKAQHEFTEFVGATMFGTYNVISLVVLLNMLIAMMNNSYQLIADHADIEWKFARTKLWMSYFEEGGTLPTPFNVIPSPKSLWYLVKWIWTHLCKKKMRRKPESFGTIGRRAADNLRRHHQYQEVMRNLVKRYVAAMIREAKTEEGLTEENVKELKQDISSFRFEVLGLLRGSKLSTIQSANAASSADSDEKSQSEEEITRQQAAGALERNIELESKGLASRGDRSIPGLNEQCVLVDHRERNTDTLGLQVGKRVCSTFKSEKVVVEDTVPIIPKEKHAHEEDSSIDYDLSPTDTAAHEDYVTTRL
UniProt Q9QX29: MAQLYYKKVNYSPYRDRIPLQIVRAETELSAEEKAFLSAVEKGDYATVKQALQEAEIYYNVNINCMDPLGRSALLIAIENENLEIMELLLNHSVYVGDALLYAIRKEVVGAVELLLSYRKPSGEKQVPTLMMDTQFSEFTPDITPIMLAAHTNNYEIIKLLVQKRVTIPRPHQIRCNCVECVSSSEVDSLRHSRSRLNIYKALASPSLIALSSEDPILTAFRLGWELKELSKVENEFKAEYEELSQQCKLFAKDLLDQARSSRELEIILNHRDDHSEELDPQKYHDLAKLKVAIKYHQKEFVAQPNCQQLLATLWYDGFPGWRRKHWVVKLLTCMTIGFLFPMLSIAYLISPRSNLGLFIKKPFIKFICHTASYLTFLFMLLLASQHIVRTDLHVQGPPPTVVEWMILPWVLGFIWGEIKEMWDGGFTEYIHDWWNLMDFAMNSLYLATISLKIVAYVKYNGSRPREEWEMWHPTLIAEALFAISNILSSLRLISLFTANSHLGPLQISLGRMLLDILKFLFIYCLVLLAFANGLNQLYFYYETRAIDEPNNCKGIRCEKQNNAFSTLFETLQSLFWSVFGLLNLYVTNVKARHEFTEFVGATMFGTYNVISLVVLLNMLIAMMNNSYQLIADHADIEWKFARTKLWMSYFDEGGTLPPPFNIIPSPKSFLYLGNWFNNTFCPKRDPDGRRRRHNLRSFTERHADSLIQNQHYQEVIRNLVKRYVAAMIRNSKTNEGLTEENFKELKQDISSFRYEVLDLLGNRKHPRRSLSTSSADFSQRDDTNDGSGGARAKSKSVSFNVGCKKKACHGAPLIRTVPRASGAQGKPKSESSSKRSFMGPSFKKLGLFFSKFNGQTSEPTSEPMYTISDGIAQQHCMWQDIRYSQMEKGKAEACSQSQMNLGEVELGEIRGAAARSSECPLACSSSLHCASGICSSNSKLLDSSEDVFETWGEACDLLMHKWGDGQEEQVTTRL
UniProt P48995: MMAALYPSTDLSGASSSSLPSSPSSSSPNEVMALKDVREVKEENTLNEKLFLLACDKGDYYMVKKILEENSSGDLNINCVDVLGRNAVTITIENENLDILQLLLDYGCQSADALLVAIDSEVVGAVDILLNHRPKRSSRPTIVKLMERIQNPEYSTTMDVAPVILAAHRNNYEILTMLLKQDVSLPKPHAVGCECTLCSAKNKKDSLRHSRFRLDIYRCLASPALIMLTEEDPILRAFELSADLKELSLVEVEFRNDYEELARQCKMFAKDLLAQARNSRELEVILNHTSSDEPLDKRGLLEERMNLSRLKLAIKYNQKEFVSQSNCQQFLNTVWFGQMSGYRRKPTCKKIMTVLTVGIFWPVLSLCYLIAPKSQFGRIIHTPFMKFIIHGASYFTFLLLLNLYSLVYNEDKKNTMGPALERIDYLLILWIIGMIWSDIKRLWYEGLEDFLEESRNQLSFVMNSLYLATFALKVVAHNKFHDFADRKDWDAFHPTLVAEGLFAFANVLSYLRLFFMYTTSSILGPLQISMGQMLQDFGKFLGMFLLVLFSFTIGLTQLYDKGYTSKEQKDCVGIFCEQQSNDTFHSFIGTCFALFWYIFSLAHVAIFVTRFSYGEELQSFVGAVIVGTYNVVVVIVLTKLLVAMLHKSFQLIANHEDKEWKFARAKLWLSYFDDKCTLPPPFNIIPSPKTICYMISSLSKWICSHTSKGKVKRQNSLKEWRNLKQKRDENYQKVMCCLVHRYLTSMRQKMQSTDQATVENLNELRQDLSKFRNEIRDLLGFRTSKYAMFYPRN
UniProt P50148: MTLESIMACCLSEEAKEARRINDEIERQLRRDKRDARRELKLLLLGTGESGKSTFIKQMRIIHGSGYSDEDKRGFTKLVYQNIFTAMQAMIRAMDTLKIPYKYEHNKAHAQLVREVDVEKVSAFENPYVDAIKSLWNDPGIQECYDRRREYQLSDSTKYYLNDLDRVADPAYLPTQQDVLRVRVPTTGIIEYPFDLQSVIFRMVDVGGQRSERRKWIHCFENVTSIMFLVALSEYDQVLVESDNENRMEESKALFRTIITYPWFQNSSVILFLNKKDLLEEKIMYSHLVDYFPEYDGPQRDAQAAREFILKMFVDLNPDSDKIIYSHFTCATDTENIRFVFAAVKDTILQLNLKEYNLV
UniProt P20309: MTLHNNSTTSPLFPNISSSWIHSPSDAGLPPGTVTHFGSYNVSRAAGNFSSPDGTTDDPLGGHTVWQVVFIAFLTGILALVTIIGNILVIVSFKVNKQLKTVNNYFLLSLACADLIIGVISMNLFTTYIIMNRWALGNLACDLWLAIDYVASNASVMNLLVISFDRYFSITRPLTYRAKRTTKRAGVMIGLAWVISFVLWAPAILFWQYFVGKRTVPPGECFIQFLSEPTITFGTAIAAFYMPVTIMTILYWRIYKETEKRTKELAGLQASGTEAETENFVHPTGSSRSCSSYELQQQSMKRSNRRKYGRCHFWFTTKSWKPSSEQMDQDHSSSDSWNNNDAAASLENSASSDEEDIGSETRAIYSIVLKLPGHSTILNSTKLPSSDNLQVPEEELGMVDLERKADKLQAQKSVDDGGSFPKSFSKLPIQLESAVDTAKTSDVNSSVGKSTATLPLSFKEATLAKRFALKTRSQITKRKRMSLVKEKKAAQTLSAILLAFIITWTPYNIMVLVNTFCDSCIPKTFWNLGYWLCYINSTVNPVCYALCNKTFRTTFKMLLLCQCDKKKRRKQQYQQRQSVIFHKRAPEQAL

Columns and labels:
[1] = biological target: TRPC4β (construct of the co-IP in Supplementary Fig. S1) (UniProt Q9QUQ5); test: co-IP; co-immunoprecipitation of coexpressed TRPC channels (Supplementary Fig. S1); lysis buffer 0.5% Triton X-100, 50 mM Tris-Cl, 150 mM NaCl, 1 mM EDTA, pH 7.5; tags and direction not shown
[2] = biological target: TRPC5 (construct of the co-IP in Supplementary Fig. S1) (UniProt Q9QX29); test: as above
[3] = biological target: TRPC4β, CFP- or YFP-tagged (UniProt Q9QUQ5); test: FRET or BRET; three-cube FRET efficiency at the plasma membrane of living HEK293 cells cotransfected with CFP- and YFP-tagged channels; CFP/YFP ratio 0.5 to 2.0
[4] = biological target: TRPC5, CFP- or YFP-tagged (UniProt Q9QX29); test: as above
TRPC4β-Flag = TRPC4β-Flag (UniProt Q9QUQ5); test: co-IP; lysates of HEK293 cells expressing TRPC1 with TRPC4β-Flag or TRPC5-Flag and YFP-tagged Gαq (WT or Q209L); immunoprecipitated by a GFP antibody or a Flag antibody, blotted with the other
TRPC5-Flag = TRPC5-Flag (UniProt Q9QX29); test: as above
[5] = biological target: TRPC1α, CFP- or YFP-tagged (UniProt P48995); test: FRET or BRET; three-cube FRET efficiency at the plasma membrane of living HEK293 cells cotransfected with CFP- and YFP-tagged channels; CFP/YFP ratio 0.5 to 2.0

binding [3]	binding [4]	further results	Substance
–	–	binding [1]: binds; binding [2]: binds	TRPC1α (construct of the co-IP in Supplementary Fig. S1) (from UniProt P48995 1-793)
binds	binds	–	TRPC1α, CFP- or YFP-tagged (from UniProt P48995 1-793)
–	–	binding [2]: binds	TRPC4β (construct of the co-IP in Supplementary Fig. S1) (from UniProt Q9QUQ5-2 1-890)
binds	binds	–	TRPC4β, CFP- or YFP-tagged (from UniProt Q9QUQ5-2 1-890)
–	binds	–	TRPC5, CFP- or YFP-tagged (from UniProt Q9QX29 1-975)
–	–	binding (TRPC4β-Flag): binds; binding (TRPC5-Flag): binds	YFP-tagged Gαq (Q209L) (from UniProt P50148 1-359)
no binding	no binding	binding [5]: no binding	YFP-tagged muscarinic receptor 3 (from UniProt P20309 1-590)
